Source: US9255088B2, “Premature-termination-codons readthrough compounds” (The Regents of the University of California, priority 2010, dated 2016)

Tested on: ATM-Ser1981 autophosphorylation in AT229LA cells (TAG A)
Test: Flow cytometry ATM-Ser1981 phosphorylation (FC-ATM) in AT229LA cells
Type: cell-based, human
Conditions: isotype controls
Source text: To further compare the readthrough activity of RTC#13 and #14 with gentamicin and G418, we used a flow cytometry (FC)-based ATM-Ser1981 phosphorylation assay to assess readthrough activity in AT229LA cells (TAG A; FIG. 4). […] This was consistent with previous ATM IRIF data (FIG. 3c). Encouragingly, ATM-Ser1981 phosphorylation levels induced by RTC#13 and #14 were similar to those induced by the same concentrations of gentamicin and G418 in the same cell line (FIG. 4).
AT229LA cells (TAG A) were treated with RTC#13 and #14 for 4 d and analyzed for ATM-Ser1981 phosphorylation using FC. Gentamicin and G418 were used as positive readthrough controls. […] Results were consistent in three independent experiments.
FC-SMC1 assay was performed as recently described (Nahas et al., 2009). FC-ATM-Ser1981 assay was based on Honda's assay (Honda et al., 2009, Leukemia. 23:409-414) with modifications. In brief, cells were resuspended in PBS and radiated for 10 Gy. After 1 h, the cells were fixed and permeabilized using the FIX & PERM cell permeabilization kit (Invitrogen). The cells were then incubated with 1 μl of mouse ATM-Ser1981 antibody (Cell Signaling Technology) for 2 h at room temperature. […] Cells were next washed and resuspended in PBS with 0.2% paraformaldehyde and analyzed using a FACSCalibur (BD).

N=C1NC(=O)C(=Cc2ccc(-c3ccccc3[N+](=O)[O-])o2)S1 [RTC13, 2-imino-5-{[5-(2-nitrophenyl)-2-furyl]methylene}-1,3-thiazolidin-4-one]
autofluorescence: Neither of the two compounds produces green autofluorescence; also recorded: Neither compound produced autofluorescence

CC(C)(C)c1ccc(O)c(N=Cc2cccc([N+](=O)[O-])c2)c1 [RTC14, 4-tert-butyl-2-[(3-nitrobenzylidene)amino]pheno]
autofluorescence: Neither of the two compounds produces green autofluorescence; also recorded: Neither compound produced autofluorescence

“Also recorded” adds a separate entry of the source.
